Data source: PubChem BioAssay AID1159578 (Peter MacCallum Cancer Centre, 2015)

Aim: 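Knock-downs that alter how fast lymphatic endothelial cells migrate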 (primary screen)
System: human lymphatic endothelial cells
Reagent: siRNA pool against human genes, 40 nM
Timing: 48 h after transfection
Measurement: 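Cells stained with dye and imaged after a scratch; covered wound area and nuclei counted, duplicates averaged, migration set against mock wells and turned into a robust z-score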
Scale: migration robust z-score: higher = faster migration into the scratch; migration relative to mock: higher = more scratch area covered than mock; nuclei per well: higher = more cells in the well
Active means: 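Pools averaging fewer than 3300 nuclei are never called; remaining pools count as changed when migration robust z lies outside -2 to 2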
Calls: active = migration changed; inactive = no migration change, or too few cells
Shown is one part, drawn at random, of about 18,000 reagents tested. In the full data, about 1,030 (5.7%) got an active call. 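Inactive calls also include pools with fewer than 3300 nuclei, whose migration was not assessed.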 Raw values are not corrected between plates. A number with no mark means an inactive call.

gene symbol	migration robust z-score	migration class with cell-count check	migration relative to mock	nuclei per well, duplicate mean
MAD2L2 (mitotic arrest deficient 2 like 2)	-1.3	migration z between -2 and 2; enough cells	0.56	4362
TMEM38A (transmembrane protein 38A)	-0.74	migration z between -2 and 2; enough cells	0.69	6538
ASB15 (ankyrin repeat and SOCS box containing 15)	0.99	migration z between -2 and 2; enough cells	1	4776
FSCN2 (fascin actin-bundling protein 2, retinal)	-0.52	migration z between -2 and 2; enough cells	0.75	4096
PTGER2 (prostaglandin E receptor 2)	0.96	migration z between -2 and 2; enough cells	0.99	5762
SUCLG1 (succinate-CoA ligase GDP/ADP-forming subunit alpha)	0.13	migration z between -2 and 2; enough cells	0.83	6394
CWC22 (CWC22 spliceosome associated protein)	-3.01 (active)	migration z below -2; enough cells	0.11	4974
NUP35 (nucleoporin 35)	-0.26	migration z between -2 and 2; enough cells	0.82	5384
PROSER3 (proline and serine rich 3)	0.17	migration z between -2 and 2; enough cells	0.93	5969
NRGN (neurogranin)	1.35	migration z between -2 and 2; enough cells	1.06	6052
SLC25A52	-0.83	migration z between -2 and 2; enough cells	0.67	5024
MRPS7 (mitochondrial ribosomal protein S7)	1.22	migration z between -2 and 2; enough cells	1.21	7232
MAPK11 (mitogen-activated protein kinase 11)	-4.04 (active)	migration z below -2; enough cells	0.02	4259
DNAI3 (dynein axonemal intermediate chain 3)	-1.85	migration z between -2 and 2; enough cells	0.4	3902
ORC2 (origin recognition complex subunit 2)	0.55	migration z between -2 and 2; enough cells	1.03	5434
FAM199X (family with sequence similarity 199, X-linked)	0.34	migration z between -2 and 2; enough cells	0.98	5795
ATP1A3 (ATPase Na+/K+ transporting subunit alpha 3)	1.2	migration z between -2 and 2; enough cells	1.04	5423
PTPN21 (protein tyrosine phosphatase non-receptor type 21)	0.32	migration z between -2 and 2; enough cells	0.86	5548
G2E3 (G2/M-phase specific E3 ubiquitin protein ligase)	0.36	migration z between -2 and 2; enough cells	0.88	6760

Targets above whose gene name begins with F or f (2):
gene symbol	migration robust z-score	migration class with cell-count check	migration relative to mock	nuclei per well, duplicate mean
FSCN2 (fascin actin-bundling protein 2, retinal)	-0.52	migration z between -2 and 2; enough cells	0.75	4096
FAM199X (family with sequence similarity 199, X-linked)	0.34	migration z between -2 and 2; enough cells	0.98	5795

The list goes on:
gene symbol	migration robust z-score	migration class with cell-count check	migration relative to mock	nuclei per well, duplicate mean
MIS12 (MIS12 kinetochore complex component)	0.34	migration z between -2 and 2; enough cells	0.98	5836
KIF20B (kinesin family member 20B)	-0.1	migration z between -2 and 2; enough cells	0.78	6386
KBTBD2 (kelch repeat and BTB domain containing 2)	0.08	migration z between -2 and 2; enough cells	0.9	6308
ME2 (malic enzyme 2)	0.96	migration z between -2 and 2; enough cells	0.99	6438
CRELD1 (CRELD disulfide isomerase 1)	-1.2	migration z between -2 and 2; enough cells	0.57	4084
RRAGC (Ras related GTP binding C)	0.6	migration z between -2 and 2; enough cells	1.04	6355
KCNH3 (potassium voltage-gated channel subfamily H member 3)	0.28	migration z between -2 and 2; enough cells	0.86	5418
RPL27 (ribosomal protein L27)	-0.48	migration z between -2 and 2; enough cells	0.76	3760
DRAM2 (DNA damage regulated autophagy modulator 2)	-0.18	migration z between -2 and 2; enough cells	0.84	4911
PHC2 (polyhomeotic homolog 2)	-1.9	migration z between -2 and 2; enough cells	0.44	3564
MGLL (monoglyceride lipase)	-1.74	migration z between -2 and 2; enough cells	0.47	5180
KCNH6 (potassium voltage-gated channel subfamily H member 6)	-0.52	migration z between -2 and 2; enough cells	0.7	5292
TOR4A (torsin family 4 member A)	1.2	migration z between -2 and 2; enough cells	1.19	6134
TXK (TXK tyrosine kinase)	0	migration z between -2 and 2; enough cells	0.8	4595
ZNF234 (zinc finger protein 234)	1.13	migration z between -2 and 2; enough cells	1.18	6600
CXXC4 (CXXC finger protein 4)	-0.8	migration z between -2 and 2; enough cells	0.68	5239
NIBAN3 (niban apoptosis regulator 3)	-0.4	migration z between -2 and 2; enough cells	0.78	5622
RDH12 (retinol dehydrogenase 12)	1.32	migration z between -2 and 2; enough cells	1.06	6392
TRIM22 (tripartite motif containing 22)	-0.13	migration z between -2 and 2; enough cells	0.78	5492
PRKCH (protein kinase C eta)	-1.46	migration z between -2 and 2; enough cells	0.52	5290
